The values below come from PubChem BioAssay AID2685 (National Center for Advancing Translational Sciences (NCATS), 2010).

Broadly, the AC50 is the concentration at which the activity in the assay is half-maximal. A high value points to weaker potency.

The other results are listed elsewhere or left out. These are further read-outs of the screen, such as a control signal, another cell line or another target. No call is given for them. Compounds called inactive in the main read-out are mostly missing here. Potencies come from curve fits of mixed quality, noted in brackets.

The test is described as follows: qHTS Assay for Lipid Storage Modulators in Drosophila S3 Cells.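 As to cell number change: cells counted by Cell Tracker Red CMTPX staining in the red channel.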 To be noted: BODIPY lipid droplet fluorescence, 18-24 h; for cell number change: measured here: cell count max response, cells fed with added oleic acid. In short, it runs like this: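 Drosophila S3 cells got compounds at several concentrations plus oleic acid (400 uM solution). Laser-scanning cytometry with 488 nm excitation read lipid droplets at 500-530 nm and cells at 575-640 nm. Percent activity was relative to 20 uM Triacsin C.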
In general terms: Quantitative high-throughput screening tests each substance at several concentrations.

[1] abbreviates: measured here: lipid fluorescence (Fed channel) AC50, cells fed with added oleic acid.
The mark [2] stands for this setting: measured here: cell number channel AC50, cells fed with added oleic acid.

Regarding `COCCN(CC1CCCN(C2Cc3ccccc3C2)C1)C(=O)CSC` (stereo not drawn), the cell number change is 14.2%. Turning to `CCC(NS(=O)(=O)c1cnn(CC)c1)c1ccccc1` (stereo not drawn), the cell number change was -9.01%. Also, under setting [1], the AC50 is 5.17 µM [falling, full curve, poor fit]. With `O=C(O)COn1c(-c2ccc(Cl)cc2)nc2ccc(Cl)cc21`, the cell number change is 9.24%. Further, the AC50 under setting [1] was 29.1 µM [falling, partial curve]. Turning to `O=C(NCC(=O)N(c1ccc(F)cc1)C(C(=O)NC1CCCCC1)c1cccnc1)c1ccco1` (stereo not drawn), the cell number change stood at 5.83%. Moreover, the AC50 under setting [1] is 8.2 µM [rising, partial curve]. In the case of `Cn1cc(/C=C(\C#N)C(=O)Nc2ncc(Cc3ccc(Cl)cc3)s2)c2ccccc21`, the cell number change was -6.54%. The AC50 under setting [2] was 0.103 µM [rising, full curve, poor fit]. Further, the AC50 under setting [1] is 2.06 µM [rising, partial curve]. For `COc1ccc(CNC(=O)C(C)N(C)Cc2cccc(F)c2)cc1` (stereo not drawn), the cell number change is 31.9%. In addition, the AC50 under setting [2] is 13 µM [rising, partial curve, poor fit]. Moreover, the AC50 under setting [1] is 8.2 µM [rising, partial curve].

For the compound `CCNS(=O)(=O)c1ccc(OC)c(C)c1`, the cell number change stood at 6.34%. Moreover, under setting [1], the AC50 was 16.4 µM [rising, partial curve, poor fit]. In the case of `CC1=CN2C(=N)/C(=C/c3ccc(Sc4ccc(C)cc4)o3)C(=O)N=C2S1`, the cell number change is 31.1%. Further, the AC50 under setting [2] is 6.51 µM [rising, partial curve]. Moreover, the AC50 under setting [1] is 29.1 µM [rising, single point]. On to `Cc1ccc(C(=O)C2CCN(CC(=O)Nc3nc(C)cs3)CC2)cc1`, for which the cell number change was -17.4%. Also, the AC50 under setting [1] was 0.92 µM [rising, full curve, poor fit]. On to `Cc1ccc(N(Cc2ccccc2)C(=O)c2ccc(Cl)c(S(=O)(=O)N3CCOCC3)c2)cc1`, for which, under setting [1], the AC50 is 13 µM [rising, partial curve]. For the compound `CC(C)=CCc1c(O)c(CC=C(C)C)c2c(c1O)C(=O)CC(c1ccc(O)cc1)O2` (stereo not drawn), the cell number change was -31.3%. Besides, the AC50 under setting [2] is 29.1 µM [falling, single point]. For the compound `Cc1ccc(OS(=O)(=O)c2ccc(N3C(=O)CCC3=O)cc2)cc1`, the cell number change is -9.21%. The AC50 under setting [2] was 0.00461 µM [falling, full curve, poor fit]. For the same compound, the AC50 under setting [1] is 5.62 µM [rising, single point]. As for `CCN(CC(=O)Nc1ccc(NC(C)=O)cc1)C(=O)CCCOc1ccc(C(C)(C)C)cc1`, the cell number change is 13.5%. Moreover, under setting [1], the AC50 was 29.1 µM [falling, single point].

With `CC(NS(=O)(=O)OCC(Cl)(Cl)Cl)c1ccc(Br)cc1` (stereo not drawn), the cell number change is -20.4%. Regarding `Cc1ccc(NC(=O)CSc2nnc([C@H](C)NC(=O)OC(C)(C)C)o2)c(C)c1`, the cell number change was -7.84%. Besides, the AC50 under setting [1] is 2.91 µM [rising, single point]. As for `Fc1ccc(NC(=S)Nc2ccc(Cl)cc2)cc1`, the cell number change was -24.9%. For the same compound, the AC50 under setting [2] is 4.11 µM [falling, full curve, poor fit]. For the compound `Cc1ccc(C)c(OCC(=O)NCCN(C)C)c1`, the cell number change is 33%. In addition, under setting [2], the AC50 is 4.11 µM [falling, single point]. Also, under setting [1], the AC50 was 0.731 µM [falling, full curve].

Turning to `Cc1ccc(Nc2cc(C)nc3ncnn23)c(C)c1`, the cell number change came to 0.587%. Further, the AC50 under setting [1] was 29.1 µM [falling, single point].

Take `Cc1ccc(OCCn2c(C3CC(=O)N(Cc4ccccc4)C3)nc3ccccc32)cc1` (stereo not drawn): the cell number change is 26%. In the case of `O=C(O)CSc1ncnc2scc(-c3ccccc3)c12`, the cell number change was 23.1%. In addition, the AC50 under setting [1] was 0.0651 µM [rising, full curve, poor fit]. For the compound `NC(=O)c1cc([N+](=O)[O-])ccc1NCCN1C(=O)c2ccc(C(=O)O)cc2C1=O`, the cell number change is 6.5%. The AC50 under setting [2] was 6.51 µM [falling, single point]. Besides, the AC50 under setting [1] is 6.51 µM [falling, single point].

Consider `CSc1cccc(NC(=O)Nc2ccccc2)c1`, for which the cell number change was -1.36%. In the case of `C=CCNC(=O)/C=C/c1ccc(C(C)C)cc1`, the cell number change amounted to 15.4%. For the same compound, the AC50 under setting [1] was 3.66 µM [rising, partial curve, poor fit].

Regarding `O=C(Cn1nc(C(F)F)cc1C(F)F)NNC(=S)Nc1ccc(F)cc1`, the cell number change was -11.6%. Also, the AC50 under setting [1] is 0.731 µM [falling, full curve, poor fit].

With `O=C(C1COc2ccccc2O1)N1CCN(S(=O)(=O)c2ccccc2)CC1` (stereo not drawn), the cell number change is -1.03%. For the compound `Cc1nnc(SCC(=O)NC2CCCCC2)n1C1CCCCC1`, the AC50 under setting [1] is 29.1 µM [rising, single point]. `O=C(CSC1=Nc2ccccc2C2=NC(CC(=O)NC3CCCCC3)C(=O)N12)NCc1ccco1` (stereo not drawn): the cell number change was determined as 4.56%. Also, under setting [1], the AC50 is 29.1 µM [rising, single point]. Regarding `N#CCCN(CC(=O)O)S(=O)(=O)c1ccccc1`, the cell number change is -50.9%. The AC50 under setting [2] was 5.8 µM [falling, full curve]. Further, under setting [1], the AC50 was 5.17 µM [falling, full curve]. `CCOc1ccc(S(=O)(=O)c2c[nH]c3ccccc3c2=O)cc1`: the cell number change stood at 48.6%. Further, the AC50 under setting [2] is 29.1 µM [rising, single point].

As for `COC(=O)C(Cc1c[nH]c2ccccc12)NC(=O)c1ccc2nc[nH]c2c1` (stereo not drawn), the cell number change is -14.6%.

`COc1cc(C(c2oc(CO)cc(=O)c2O)c2oc(CO)cc(=O)c2O)cc(OC)c1OC`: the cell number change was -42.6%. In addition, the AC50 under setting [2] was 0.13 µM [rising, full curve, poor fit]. For the compound `O=C(Cc1ccccc1Cl)N1CCOCC1`, the cell number change is -22.8%. Take `C=CCNC(=O)CSc1nnc(C(CC)N(C)C)n1C1CCCCC1` (stereo not drawn): the cell number change stood at 26.5%. Besides, the AC50 under setting [1] was 0.0082 µM [rising, full curve, poor fit]. As to `CC(C)c1ccc(NC2=CC(=O)CC(C)(C)C2)cc1`, the cell number change was -39.7%. The AC50 under setting [1] was 16.4 µM [falling, partial curve].

Turning to `CCc1nnc(NC(=O)CSc2nnc(COc3ccc(C)cc3)n2-c2ccccc2)s1`, the cell number change is -11.2%. Moreover, under setting [2], the AC50 is 3.26 µM [rising, single point]. As to `CN(C(=O)c1cc2ccccc2cc1O)C1CCCCC1`, the cell number change stood at 18.5%. `COc1ccc(Cc2nnc(Nc3ccc(C)cc3C)[nH]c2=O)cc1`: the cell number change was -141%.

Turning to `O=C(Nc1cccc(-c2nc3ccccc3s2)c1)C1=COCCO1`, the cell number change came to 11%. Moreover, the AC50 under setting [1] is 18.4 µM [rising, partial curve, poor fit]. As to `Cc1[nH]oc(=O)c1N=Nc1c(Cl)cccc1Cl`, the cell number change is -18.8%.

In the case of `CN1N=C2c3ccccc3CCC2C1c1ccc(Cl)cc1` (stereo not drawn), the cell number change was found to be 33.2%. Further, the AC50 under setting [2] was 18.4 µM [rising, partial curve, poor fit]. Regarding `COC(=O)c1cccc(Nc2c3c(nc4ccccc24)CCC3)c1`, the cell number change amounted to 15.3%. Under setting [1], the AC50 is 29.1 µM [rising, single point]. For the compound `CCn1ccnc1CN(C)Cc1c(C(=O)N2CCCCCCC2)nc2ccc(Cl)cn12`, the cell number change was found to be 2.93%.

As to `COc1ccc(C)cc1S(=O)(=O)N(CC(N)=O)Cc1ccccc1`, under setting [1], the concentration at half-maximal activity (AC50) was 0.731 µM [falling, single point].

Turning to `C/C(=N\Nc1ccc(C(F)(F)F)cc1[N+](=O)[O-])C(C)C`, the cell number change was -24.2%.

For `Cc1ccnc(NC(=O)Cn2c(=O)oc3cc(S(=O)(=O)N4CCCC4)ccc32)c1`, the cell number change is -11.4%. Also, the AC50 under setting [1] is 0.00461 µM [falling, full curve, poor fit]. In the case of `Cc1cc2c3c([nH]c2cc1S(=O)(=O)NCCCOC(C)C)CC(C)(C)CC3=O`, the cell number change came to 14.2%. The AC50 under setting [2] was 1.64 µM [rising, partial curve]. With `COc1ccc(-c2cc3ncnc(Cl)c3s2)cc1`, the cell number change came to 0.403%.

Take `COc1ccc(-n2cnnc2SCC(=O)Nc2cc(C(C)(C)C)nn2-c2ccccc2)cc1`: the cell number change was -22.8%. Besides, the AC50 under setting [2] was 3.26 µM [falling, full curve, poor fit]. Moreover, the AC50 under setting [1] is 6.51 µM [falling, single point]. As to `CC(C)c1ccc(NC(=O)Cn2cccc2C2=NC(c3ccccc3)CO2)cc1` (stereo not drawn), the cell number change is 60%. Moreover, the AC50 under setting [2] was 11.6 µM [rising, partial curve, poor fit].

Regarding `COC(=O)CSc1nnc(COc2ccc([N+](=O)[O-])cc2)n1C`, the cell number change is -6.62%. In addition, under setting [1], the AC50 was 0.00517 µM [falling, full curve, poor fit]. For `COc1cccc(CNCCc2c[nH]c3ccccc23)c1OCc1ccccc1`, the cell number change is -56.3%. Under setting [2], the AC50 was 16.4 µM [falling, single point]. In addition, under setting [1], the AC50 is 16.4 µM [falling, partial curve]. On to `CCc1cc(C(=O)N/N=C/c2ccc(OC)cc2)c2ccccc2n1`, for which the cell number change worked out at 27.8%. Further, under setting [1], the AC50 was 29.1 µM [falling, partial curve].

`CCC(C)N(C(=O)COC(=O)Cc1n[nH]c(=O)c2ccccc12)C1CCS(=O)(=O)C1` (stereo not drawn): the cell number change came to 1.07%. On to `CCCC(=O)Nc1nc(-c2ccccc2)c(CC)s1`, for which the cell number change was 33.3%. The AC50 under setting [2] was 25.9 µM [rising, partial curve]. Besides, the AC50 under setting [1] was 0.411 µM [rising, full curve]. With `CCOC(=O)C1CSC2(CCC(c3ccccc3)CC2)N1` (stereo not drawn), the cell number change is -44.3%. Moreover, the AC50 under setting [2] is 16.4 µM [falling, partial curve]. Also, the AC50 under setting [1] is 10.3 µM [falling, partial curve, poor fit]. On to `Cc1ccsc1C1NC(=O)c2c(sc3c2CCN(C)C3)N1` (stereo not drawn), for which the cell number change is -15.9%. The AC50 under setting [2] was 1.84 µM [falling, partial curve, poor fit]. Besides, the AC50 under setting [1] was 3.26 µM [falling, single point].

In the case of `Cc1ccc(NCC(=O)N/N=C\C(Br)=C\c2ccccc2)cc1`, the cell number change was -112%. Further, under setting [2], the AC50 was 23.1 µM [falling, single point]. The AC50 under setting [1] was 3.66 µM [rising, partial curve]. On to `COc1ccc2nc(CC(C)(C)CC(=O)O)c[n+]([O-])c2c1`, for which the cell number change came out at 5.37%. The AC50 under setting [1] is 1.3 µM [falling, partial curve].

In the case of `CC(OC(=O)c1cccc(S(=O)(=O)N2CCCCC2)c1)C(=O)NCC1CCCCC1` (stereo not drawn), the cell number change was 10%. As for `CN1CCN(C(=S)NCCc2ccccc2)CC1`, the cell number change was -25.4%. Also, the AC50 under setting [2] was 0.82 µM [falling, full curve, poor fit]. In addition, the concentration at half-maximal activity (AC50) under setting [1] is 0.82 µM [falling, full curve].

As for `Cc1[nH]nc2c1C1(CCOCC1)C(C#N)=C(N)O2`, the cell number change amounted to 3.72%. The AC50 under setting [1] was 1.3 µM [rising, partial curve].
